Data on 62 compounds can be found in PubChem BioAssay AID651660 (Broad Institute, 2012).

Amino acid sequences for entries named in this document (tags omitted). A change or cut given only in a name is not applied to a line headed by its entry.
UniProt P43351: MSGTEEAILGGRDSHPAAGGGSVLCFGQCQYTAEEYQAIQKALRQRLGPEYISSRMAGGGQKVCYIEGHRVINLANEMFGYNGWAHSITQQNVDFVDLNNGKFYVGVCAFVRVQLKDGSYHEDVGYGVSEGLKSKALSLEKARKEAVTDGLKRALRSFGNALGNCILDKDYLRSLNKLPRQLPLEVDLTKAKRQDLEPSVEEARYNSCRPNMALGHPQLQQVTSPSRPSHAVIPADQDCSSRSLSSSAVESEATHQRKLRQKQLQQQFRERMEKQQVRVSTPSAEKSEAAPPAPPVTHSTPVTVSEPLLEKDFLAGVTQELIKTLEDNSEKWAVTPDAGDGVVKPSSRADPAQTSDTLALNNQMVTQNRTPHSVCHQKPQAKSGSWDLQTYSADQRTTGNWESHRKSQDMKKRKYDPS

Values joined by “and” are separate entries in the source; they are usually repeats but may differ in a detail not shown here. Equal entries are not always repeated. Out of some 1,900 compounds screened, about 15 (0.8%) were called active.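 Rule for the calls: active = every replicate shows at least 50% inhibition; inconclusive = mean inhibition at least 50% but some replicate below; inactive = the rest.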 This is one part of the list.

The test deals with DNA repair protein RAD52 homolog (Homo sapiens) (UniProt P43351). Put plainly: RAD52 ssDNA annealing inhibitors, primary screen, biochemical, FRET, single point (AID 651660).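 Note: 0% = median of neutral control wells and 100% = median of positive control wells.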 The note with it: Recombinant RAD52 ssDNA annealing, FRET fluorescence, 30 min; at 18.7 µM; active compounds read high.
One may read the inhibition as the change of the read-out against control, counted positive when it falls. On to `NS(=O)(=O)c1cc2c(cc1Cl)NC(C(Cl)Cl)NS2(=O)=O` (configuration not stated), for which the inhibition was inactive: -8.63%. The result for `C[C@H](NC(=O)OC(C)(C)C)C(=O)NCC1CCC(C(=O)O)CC1` (some centres not stated) reads inactive: -0.108%; that for `NC(N)=NC(=O)Cc1c(Cl)cccc1Cl`, inactive: -5.92%. For `O=C(c1ccccc1)N1CCN(C(=O)c2ccccc2)CC1` the value was inactive: -7.09%; for `COc1ccc(OC)c(S(=O)(=O)N2CCCc3ccccc32)c1`, inactive: 3.3%; for `NCCc1cnc[nH]1`, inactive: -7.79% and inactive: -0.317%. For `CCN(CC)CCNC(=O)c1cc(Cl)c(N)cc1OC` the value was inactive: 5.94%.

As for `COc1cc2c(cc1OC)C1(CCCC1)CNC2c1cccc([N+](=O)[O-])c1` (configuration not stated), the inhibition is inactive: 13.6%. For `Cn1c(=O)c2c(nc(SCCN3CCCCC3)n2C)n(C)c1=O` the value was inactive: -1.44%.

For the compound `CCOc1ccc2ccccc2c1C(=O)N[C@@H]1C(=O)N2[C@@H]1SC(C)(C)[C@@H]2C(=O)O`, the inhibition was inactive: -5.73%. For `CCCC(=O)O[C@]1(C(=O)CCl)[C@@H](C)C[C@H]2[C@@H]3CCC4=CC(=O)C=C[C@]4(C)[C@@]3(F)C(=O)C[C@@]21C`, the inhibition was inactive: 12.1%. The result for `COc1ccc(CCNC(=O)c2c(O)c3c([nH]c2=O)CCCC3)cc1` reads inactive: -4.72%; that for `CCc1ccc(/C=C2\Oc3cc(OC(=O)N4CCOCC4)ccc3C2=O)cc1`, inactive: -7.62%; that for `[N-]=[N+]=NC1C[C@H](n2ccc(=O)[nH]c2=O)O[C@@H]1CO` (some centres not stated), inactive: -0.741%.

For the compound `COc1ccc(S(=O)(=O)NCc2ccco2)c2ccccc12`, the inhibition is inactive: -15.4%.

On to `CC1=NN(c2ccccc2)C(=O)C1`, for which the inhibition is inactive: 4.21%.

With `Cc1oc2c(O)c(O)ccc2c(=O)c1-c1ccccc1`, the inhibition was inactive: -3.45%. The result for `O=C(O)CCNC(=O)c1ccccc1` reads inactive: -3.95%. The result for `CC(C)CCn1c(N2CCc3ccccc3C2)nc2c1c(=O)[nH]c(=O)n2C` reads inactive: -3.91%; that for `c1ccc(Nc2ccccn2)nc1`, inactive: -26.8%. For `CC(C)[N+](C)(CCOC(=O)C1c2ccccc2Oc2ccccc21)C(C)C` the value was inactive: -3.65%; for `COc1cccc2c1C(=O)O/C2=C/c1ccc2c(c1)OCO2`, inactive: -3.05%. Regarding `c1cc2c(cc1C1CCCCC1)c1c3n2CCN=C3CCC1`, the inhibition is inactive: 43.4%. The result for `Cc1ccc2c(c1C)NC(C(=O)O)C1CC=CC21` (configuration not stated) reads inactive: -91.9%. The result for `CCN(Cc1ccncc1)Cc1nc(Cc2ccccc2Cl)no1` reads inactive: -13.8%; that for `CC(C)CC(=O)Nc1ccc2oc(-c3ccncc3)nc2c1`, inactive: -3.09%; that for `CCOc1cc(C)cc2oc(=O)cc(-c3ccccc3)c12`, inactive: -1.55%. For `OC[C@H]1O[C@@H](n2cnc3c(NC4CCCC4)ncnc32)[C@H](O)[C@@H]1O` the value was inactive: -4.78%; for `NC(N)=N/N=C/c1ccc(OS(=O)(=O)c2ccccc2)cc1`, inactive: 9.35%. With `C1COC(NC(C2CC2)C2CC2)=N1`, the inhibition was inactive: -4.16%. The result for `CCN(CC)CCCNC(=O)C1c2ccccc2Oc2ccccc21` reads inactive: 4.59%; that for `Cc1ccc(S(=O)(=O)Nc2ccc(S(=O)(=O)Nc3cc(C)nc(C)n3)cc2)cc1`, inactive: -6.96%. The result for `O=C1c2ccccc2C(=O)N1/N=C/c1ccc(Oc2ccc([N+](=O)[O-])cn2)cc1` reads inactive: -3.05%; that for `COc1ccc(CCN=C(N)C(C)c2ccccc2)cc1OC` (configuration not stated), inactive: 7.74%.

Turning to `COC1CCN(C(=O)c2ccc(OC3CCN(Cc4ccccn4)CC3)cc2)CC1`, the inhibition was inactive: -6.77%.

On to `COc1ccc(OCC(=O)N2c3ccc(C)cc3C3CN(C)CCC32)cc1` (configuration not stated), for which the inhibition is inactive: -2.15%.

With `COc1cccc(CN2CCN(C(=O)c3ccc(-c4ccccc4)cc3)CC2)c1`, the inhibition was inactive: -2.78%.

In the case of `Cc1nc(N)sc1C(=O)N/N=C/c1ccco1`, the inhibition is inactive: -8.8%. Consider `Cc1ccc(S(=O)(=O)N[C@@H](Cc2ccccc2)C(=O)CCl)cc1`, for which the inhibition is inactive: -0.187%. `C1CCC(C(CC2CCCCN2)C2CCCCC2)CC1` (configuration not stated): the inhibition is active: 62.5%. For `Clc1ccc(OCCCN2CCCCC2)c(Br)c1` the value was inactive: 5.3%; for `O=C(NCCc1cccc(F)c1)[C@@H]1CSC2c3ccccc3C(=O)N21` (some centres not stated), inactive: -14.6%; for `CC(C)NCC(O)COc1ccc(CCOCC2CC2)cc1` (configuration not stated), inactive: -4.67%.

On to `CC(=O)[C@@]1(O)CC[C@H]2[C@@H]3C[C@H](C)C4=CC(=O)C=C[C@]4(C)[C@@]3(F)[C@@H](O)C[C@@]21C`, for which the inhibition is inactive: 4.46%. For `CCc1nc(N)nc(N)c1-c1ccc(Cl)cc1` the value was inactive: 6.62%; for `COc1cccc(-n2cc(CNCc3c(C(=O)N(C)C)nc4ccc(Cl)cn34)cn2)c1`, inactive: -5.77%; for `CNS(=O)(=O)c1ccc(C)cc1`, inactive: -4.88%.

With `COC(=O)c1cc(C(=O)NCCC(C)C)cc([N+](=O)[O-])c1`, the inhibition is inactive: 1.21%. The result for `C/C(=N\NC(=O)C1(C)CC1(Br)Br)c1ccc([N+](=O)[O-])cc1` (configuration not stated) reads inactive: -0.318%; that for `CN(C)C(=O)C12CCC(C)(c3nc4ccccc4nc31)C2(C)C` (configuration not stated), inactive: 5.24%. Take `c1cnc(N2CCN(Cc3ccc4c(c3)OCO4)CC2)nc1`: the inhibition was inactive: -7.05%. Turning to `CCC(CO)NCCNC(CC)CO` (configuration not stated), the inhibition was inactive: -3.99%. The result for `CC1CCN(CCOCCOc2ccccc2Br)CC1` reads inactive: -6.71%; that for `CC(C)[C@H]1CN(C)CCN1Cc1cn(C)nc1-c1cccc(Cl)c1`, inactive: 5.87%. Consider `O=C(Nc1c(C(=O)O)[nH]c2ccccc12)NC1CCCCC1`, for which the inhibition was inactive: 6.28%.

Consider `CC(C)C(=O)Nc1c(O)c2ccccc2[nH]c1=O`, for which the inhibition is inactive: -4.57%. The result for `C(=C\c1ccccc1)/CN1CCN(C(c2ccccc2)c2ccccc2)CC1` reads inactive: -5.05%. The result for `C=CCc1cc(Cl)ccc1OCCOCCN(C)C` reads inactive: 3.43%. The result for `CC(=O)NC1C(OCCOc2ccc(Cl)cc2Cl)OC(COC(C)=O)C(OC(C)=O)C1OC(C)=O` (configuration not stated) reads inactive: -0.287%; that for `Cn1c(=O)c2c(ncn2Cc2ccccc2)n(C)c1=O`, inactive: 0.734%; that for `CCOC(=O)C1C(=O)OC2(CCOC(C)(C)C2)C1C(=O)OCC` (configuration not stated), inactive: -9.42%. `Cc1ccc(OCCCCn2ccnc2C)c(C)c1`: the inhibition is inactive: -20.1%.
